From US20030166548A1, “PLAP polypeptides and methods of producing and using same” (Board of Regents, The University of Texas System, priority 1997, published 2003)

Experiment: Release of [3H]-oleic acid from labeled E. coli by melittin, effect of quenching method

CC[C@H](C)[C@H](NC(=O)CN)C(=O)NCC(=O)N[C@@H](C)C(=O)N[C@H](C(=O)N[C@@H](CC(C)C)C(=O)N[C@@H](CCCCN)C(=O)N[C@H](C(=O)N[C@@H](CC(C)C)C(=O)N[C@H](C(=O)N[C@H](C(=O)NCC(=O)N[C@@H](CC(C)C)C(=O)N1CCC[C@H]1C(=O)N[C@@H](C)C(=O)N[C@@H](CC(C)C)C(=O)N[C@H](C(=O)N[C@@H](CO)C(=O)N[C@@H](Cc1c[nH]c2ccccc12)C(=O)N[C@H](C(=O)N[C@@H](CCCCN)C(=O)N[C@@H](CCCNC(=N)N)C(=O)N[C@@H](CCCCN)C(=O)N[C@@H](CCCNC(=N)N)C(=O)N[C@@H](CCC(N)=O)C(=O)N[C@@H](CCC(N)=O)C(N)=O)[C@@H](C)CC)[C@@H](C)CC)[C@@H](C)O)[C@@H](C)O)C(C)C)C(C)C [Melittin]
release of [3H]-oleic acid with increasing melittin (0° C., reaction quenched with cold PBS): no release of [^3H]-oleic acid was observed | release of [3H]-oleic acid with increasing melittin (HCl used to stop the reaction, 0° C. to 37° C.): melittin-dependent increase in the release of [^3H]-oleic acid
